Data on 1 substance can be found in publication PMC8593192.

By UniProt entry, the sequences of proteins in these tests, tags left out. Where a name states a change or a piece, a line headed by the entry shows the natural chain unless it says otherwise.
UniProt Q13557: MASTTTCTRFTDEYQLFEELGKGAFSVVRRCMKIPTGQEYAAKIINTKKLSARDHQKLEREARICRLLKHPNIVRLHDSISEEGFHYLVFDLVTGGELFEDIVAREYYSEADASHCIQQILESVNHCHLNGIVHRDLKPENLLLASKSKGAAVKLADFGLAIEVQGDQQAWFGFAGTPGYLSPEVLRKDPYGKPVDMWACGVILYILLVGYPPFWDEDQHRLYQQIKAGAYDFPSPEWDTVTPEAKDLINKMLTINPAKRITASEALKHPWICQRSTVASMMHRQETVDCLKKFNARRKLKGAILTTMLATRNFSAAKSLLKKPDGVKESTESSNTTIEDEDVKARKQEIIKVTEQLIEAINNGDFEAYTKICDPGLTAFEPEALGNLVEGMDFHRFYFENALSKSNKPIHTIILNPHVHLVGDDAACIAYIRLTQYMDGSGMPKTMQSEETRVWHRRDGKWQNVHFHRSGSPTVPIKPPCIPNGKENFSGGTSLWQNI
UniProt Q9Y5Y9: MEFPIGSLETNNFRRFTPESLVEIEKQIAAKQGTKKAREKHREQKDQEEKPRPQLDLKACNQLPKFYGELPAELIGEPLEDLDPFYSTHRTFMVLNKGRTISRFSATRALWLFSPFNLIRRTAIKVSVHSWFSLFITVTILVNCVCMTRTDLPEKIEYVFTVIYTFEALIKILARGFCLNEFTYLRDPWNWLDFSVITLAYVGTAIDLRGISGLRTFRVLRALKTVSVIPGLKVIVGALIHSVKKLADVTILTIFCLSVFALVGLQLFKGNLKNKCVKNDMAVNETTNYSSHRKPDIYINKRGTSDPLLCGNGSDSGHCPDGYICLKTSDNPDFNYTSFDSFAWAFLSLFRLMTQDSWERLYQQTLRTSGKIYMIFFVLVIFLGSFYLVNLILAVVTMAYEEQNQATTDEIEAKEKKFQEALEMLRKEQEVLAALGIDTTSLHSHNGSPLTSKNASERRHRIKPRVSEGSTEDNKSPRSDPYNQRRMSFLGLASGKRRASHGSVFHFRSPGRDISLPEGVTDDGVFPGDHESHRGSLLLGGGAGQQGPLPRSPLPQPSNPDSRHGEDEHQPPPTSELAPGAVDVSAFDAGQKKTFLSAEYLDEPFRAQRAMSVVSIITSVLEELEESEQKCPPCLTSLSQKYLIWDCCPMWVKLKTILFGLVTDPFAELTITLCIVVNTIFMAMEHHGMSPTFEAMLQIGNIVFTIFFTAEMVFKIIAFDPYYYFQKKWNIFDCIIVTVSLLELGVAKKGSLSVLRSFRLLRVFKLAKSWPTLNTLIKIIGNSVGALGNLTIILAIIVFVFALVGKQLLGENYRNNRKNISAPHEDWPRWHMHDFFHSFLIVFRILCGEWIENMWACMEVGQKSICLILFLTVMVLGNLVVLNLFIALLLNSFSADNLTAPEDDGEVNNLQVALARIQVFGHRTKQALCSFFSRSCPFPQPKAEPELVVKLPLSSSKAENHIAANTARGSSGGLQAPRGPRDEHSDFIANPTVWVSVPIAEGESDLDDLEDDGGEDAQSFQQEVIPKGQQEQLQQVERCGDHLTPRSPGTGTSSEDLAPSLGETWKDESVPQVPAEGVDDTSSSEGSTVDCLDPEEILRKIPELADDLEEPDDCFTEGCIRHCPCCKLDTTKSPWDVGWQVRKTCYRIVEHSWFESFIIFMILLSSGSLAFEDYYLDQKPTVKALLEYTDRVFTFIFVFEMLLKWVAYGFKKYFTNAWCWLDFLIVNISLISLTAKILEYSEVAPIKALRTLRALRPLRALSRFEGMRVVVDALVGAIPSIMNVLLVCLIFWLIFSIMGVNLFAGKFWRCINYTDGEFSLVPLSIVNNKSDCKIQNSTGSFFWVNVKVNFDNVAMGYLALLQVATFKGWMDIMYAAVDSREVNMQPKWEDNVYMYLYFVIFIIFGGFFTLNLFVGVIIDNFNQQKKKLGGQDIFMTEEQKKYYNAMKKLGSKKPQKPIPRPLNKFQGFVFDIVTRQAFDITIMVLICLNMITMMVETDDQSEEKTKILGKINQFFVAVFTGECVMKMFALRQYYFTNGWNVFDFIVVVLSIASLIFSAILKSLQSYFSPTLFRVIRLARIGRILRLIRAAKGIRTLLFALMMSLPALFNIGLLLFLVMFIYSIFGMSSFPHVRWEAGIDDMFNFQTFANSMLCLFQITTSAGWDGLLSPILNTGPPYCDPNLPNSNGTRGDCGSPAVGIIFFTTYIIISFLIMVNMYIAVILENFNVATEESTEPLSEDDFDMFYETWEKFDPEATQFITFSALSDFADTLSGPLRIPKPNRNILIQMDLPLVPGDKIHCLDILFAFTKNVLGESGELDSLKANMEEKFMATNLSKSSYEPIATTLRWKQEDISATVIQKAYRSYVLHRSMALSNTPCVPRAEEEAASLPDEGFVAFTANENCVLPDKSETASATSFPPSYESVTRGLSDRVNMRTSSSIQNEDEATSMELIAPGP

The target of this assay is Ca2+/calmodulin-dependent protein kinase IIδc (human (endogenous in left ventricular myocardium)) (UniProt Q13557). Nature of the assay: co-IP; human left ventricular homogenates (non-failing and failing hearts) in 1% CHAPS in RIPA buffer, pH 7.4; CaMKIIδc immunoprecipitated with rabbit polyclonal anti-CaMKIIδ (3 μg/500 μg protein, overnight 4 °C) and protein G Plus Agarose; Western blot for NaV1.8. On the technique in general: A western blot detects proteins with antibodies after separation by electrophoresis.

No constants are given. Whether binding was seen depends on the method and setting. Binding seen in cells or lysates may run through a third protein. Some results given as binding are weak or reduced against the parent protein; the word gives no strength.

As to “NaV1.8 (voltage-gated sodium channel isoform encoded by the SCN10A gene) (from UniProt Q9Y5Y9 1-1956)”, the binding entry was “binds”.
